Test results as given in US8598325B2, “Solid-phase microextraction coatings and methods for their preparation” (priority 2002, dated 2013).

Tests used:
[1] = DI-SPME extraction of triazole pesticides from grape matrix with commercial SPME fibres; conditions: DI mode, 30 min at 30° C., mean ± SD (n=3)
[2] = HS-SPME extraction of triazole pesticides from grape matrix with commercial SPME fibres; conditions: HS mode, 60 min at 70° C., mean ± SD (n=3)
[3] = HS-SPME, 100 μg/L aqueous solution, at or near equilibrium

SMILES | Amount Extracted ([1]; Car/PDMS 75 μm fibre) | Amount Extracted ([1]; DVB/Car/PDMS 50/30 μm fibre) | Amount Extracted ([1]; PA 85 μm fibre) | Amount Extracted ([1]; PDMS 100 μm fibre) | Amount Extracted ([1]; PDMS/DVB 65 μm fibre) | Amount Extracted ([2]; DVB/Car/PDMS 50/30 μm fibre) | Amount Extracted ([2]; PA 85 μm fibre) | Amount Extracted ([2]; PDMS 100 μm fibre) | Amount Extracted ([2]; PDMS/DVB 65 μm fibre) | Amount extracted by the PDMS-coated SPME fibre compared to commercial PDMS/DVB fibre [3]
CCCCC(O)(Cn1cncn1)c1ccc(Cl)cc1Cl (centres unmarked) [Hexaconazole, hexaconazole] | 0.30 ± 0.02% | 1.2 ± 0.2% | 1.8 ± 0.3% | 1.2 ± 0.2% | 4.8 ± 0.3% | 0.1 ± 0.01% | 0.16 ± 0.01% | 0.14 ± 0.01% | 0.19 ± 0.01% | –
CCCC(Cn1cncn1)c1ccc(Cl)cc1Cl (centres unmarked) [Penconazole, penconazole] | 0.40 ± 0.09% | 3.0 ± 0.2% | 4.3 ± 0.4% | 4.6 ± 0.2% | 6.7 ± 0.6% | 0.31 ± 0.02% | 0.45 ± 0.01% | 0.38 ± 0.03% | 0.51 ± 0.07% | –
CC(C)(C)C(=O)C(Oc1ccc(Cl)cc1)n1cncn1 (centres unmarked) [Triadimefon, triadimefon] | 2.0 ± 0.5% | 9.4 ± 0.6% | 8.2 ± 0.6% | 5.6 ± 0.7% | 15.2 ± 0.8% | 0.16 ± 0.01% | 0.17 ± 0.01% | 0.14 ± 0.01% | 0.20 ± 0.01% | –
CC(C)(C)C(O)C(Oc1ccc(Cl)cc1)n1cncn1 (centres unmarked) [Triadimenol, triadimenol] | 0.20 ± 0.08% | 1.4 ± 0.2% | 1.2 ± 0.2% | 0.4 ± 0.2% | 4.2 ± 0.3% | – | – | – | 0.04 ± 0.01% | –
c1ccccc1 [benzene] | – | – | – | – | – | – | – | – | – | did not statistically differ
Cc1ccccc1C [o-xylene] | – | – | – | – | – | – | – | – | – | around 20%
